PubChem BioAssay AID250 (DTP/NCI, 2004)
The list does not hold the whole screen: it is rich in T/C values a quarter to a half above the control, in often repeated tests (any T/C) and in doses without a T/C. Further doses and runs are listed elsewhere. T/C is the treated group as % of the vehicle group. Some doses have a count of surviving animals in place of a T/C: the source holds a T/C of zero for them, seemingly a mark for toxic or unscored doses. Some doses without a T/C left all or most animals alive at the check, yet need not have been tolerated: survival well below the control is almost never listed, so the zero probably covers shortened survival too. For part of these data: Survivors were counted at the toxicity check, usually on the fifth day, unless a day is given; later deaths do not show. Schedule codes are those of the source, taken here to give the interval after Q, in days (D) or hours (H), and the number of doses after X. Some schedules carry Z or #; the key to these is not given. Some structures stand for samples that the source files as different forms (salt, stereo form or complex); doses refer to the form tested. Where survival is the endpoint, this PubChem deposit counts one and a half times the control or more as active, and values a quarter to a half above the control carry no call in these data; other NCI protocols may use other cut-offs. Some T/C values are followed by the survivors on the day toxicity was checked, most often the fifth; without a count, all were alive then. Some entries were tested several times; the values are given in rising order.

Experiments:
[1] = test system: BDF1 mice, L1210 leukemia sc; experiment: NCI In Vivo Anticancer Drug Screen. Data for tumor model L1210 Leukemia (subcutaneous) in B6D2F1 (BDF1) mice; details: T/C endpoint: median survival time, vehicle: water, higher T/C = longer survival
Procedure, shortened: (§1)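 Expressed as T/C: measurement in compound-treated, tumor-bearing mice relative to vehicle-treated control mice, based on survival or tumor size.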

[2] = test system: BDF1 mice, L1210 leukemia sc, survival T/C; experiment: as above; details: T/C endpoint: median survival time, vehicle: water, higher T/C = longer survival; for T/C: schedule: Q01DX009 (sc)
Procedure, shortened: as §1

N=c1ccn2c(n1)OC1C(O)C(CO)OC12 (stereo not drawn) was tested, and the T/C ([1]; dose: 37.5 mg/kg/injection, schedule: Q03HX008 (sc)) was 130 % of control [7 of 8 alive], the T/C ([1]; dose: 65.0 mg/kg/injection, schedule: Q01DX015 (sc), evaluated on day 7) was 144 % of control and the T/C ([1]; dose: 65.0 mg/kg/injection, schedule: Q01DX015 (sc), evaluated on day 64) was 144 % of control. For the same compound, the T/C ([1]; dose: 75.0 mg/kg/injection, schedule: Q03HX008 (sc)) was 140 % of control, the T/C ([1]; dose: 150.0 mg/kg/injection, schedule: Q04DX003 (sc)) was 145 % of control and the T/C ([1]; dose: 400.0 mg/kg/injection, schedule: Q01DX001 (sc), evaluated on day 5) was 131 % of control. The T/C ([1]; dose: 400.0 mg/kg/injection, schedule: Q01DX001 (sc), evaluated on day 35) was 130 % of control, the T/C ([1]; dose: 400.0 mg/kg/injection, schedule: Q01DX009 (sc)) was 133 % of control and the T/C ([1]; dose: 400.0 mg/kg/injection, schedule: Q## X009 (sc)) was 133 % of control [7 of 8 alive]. For the same compound, the T/C ([1]; dose: 500.0 mg/kg/injection, schedule: Q01DX009 (sc), evaluated on day 7) was 132 and 138 % of control, the T/C ([1]; dose: 500.0 mg/kg/injection, schedule: Q01DX009 (sc), evaluated on day 30) was 132 [7 of 8 alive] and 138 % of control and the T/C ([1]; dose: 600.0 mg/kg/injection, schedule: Q01DX001 (sc)) was 130 % of control. For the same compound, the T/C ([1]; dose: 600.0 mg/kg/injection, schedule: Q01DX009 (sc), evaluated on day 7) was 141 % of control, the T/C ([1]; dose: 600.0 mg/kg/injection, schedule: Q## X009 (sc)) was 141 % of control and the T/C ([1]; dose: 800.0 mg/kg/injection, schedule: Q01DX001 (sc), evaluated on day 5) was 137 % of control. The T/C ([1]; dose: 800.0 mg/kg/injection, schedule: Q01DX001 (sc), evaluated on day 35) was 130 % of control [6 of 8 alive], the T/C ([1]; dose: 800.0 mg/kg/injection, schedule: Q01DX009 (sc), evaluated on day 7) was 134 % of control and the T/C ([1]; dose: 800.0 mg/kg/injection, schedule: Q01DX009 (sc), evaluated on day 35) was 130 % of control. The T/C ([1]; dose: 833.0 mg/kg/injection, schedule: Q01DX009 (sc), evaluated on day 7) was 129 and 135 % of control, the T/C ([1]; dose: 833.0 mg/kg/injection, schedule: Q01DX009 (sc), evaluated on day 30) was 135 % of control and the T/C ([1]; dose: 833.0 mg/kg/injection, schedule: Q01DX009 (sc), evaluated on day 33) was 133 % of control. For the same compound, the T/C ([1]; dose: 833.0 mg/kg/injection, schedule: Q01DX014 (sc), evaluated on day 7) was 130 % of control, the T/C ([1]; dose: 833.0 mg/kg/injection, schedule: Q01DX014 (sc), evaluated on day 63) was 130 % of control and the T/C ([1]; dose: 1200.0 mg/kg/injection, schedule: Q01DX001 (sc)) was 140 % of control. For the same compound, the T/C ([1]; dose: 2400.0 mg/kg/injection, schedule: Q04DX003 (sc)) was 130 % of control [7 of 8 alive], the T/C ([2]; dose: 39.0 mg/kg/injection, evaluated on day 7) was 189 and 192 % of control and the T/C ([2]; dose: 39.0 mg/kg/injection, evaluated on day 30) was 166 and 194 % of control. The T/C ([2]; dose: 39.0 mg/kg/injection, evaluated on day 31) was 188 % of control, the T/C ([2]; dose: 47.0 mg/kg/injection, evaluated on day 7) was 174 and 187 % of control and the T/C ([2]; dose: 47.0 mg/kg/injection, evaluated on day 32) was 173 and 189 % of control. For the same compound, the T/C ([2]; dose: 65.0 mg/kg/injection, evaluated on day 7) was 197 and 205 % of control, the T/C ([2]; dose: 65.0 mg/kg/injection, evaluated on day 30) was 194 and 211 % of control and the T/C ([2]; dose: 65.0 mg/kg/injection, evaluated on day 31) was 194 % of control. The T/C ([2]; dose: 78.0 mg/kg/injection, evaluated on day 7) was 186 and 197 % of control, the T/C ([2]; dose: 78.0 mg/kg/injection, evaluated on day 32) was 189 and 200 % of control and the T/C ([2]; dose: 108.0 mg/kg/injection, evaluated on day 7) was 211, 212, 218 % of control. The T/C ([2]; dose: 108.0 mg/kg/injection, evaluated on day 30) was 205 and 222 % of control, the T/C ([2]; dose: 108.0 mg/kg/injection, evaluated on day 31) was 211 % of control and the T/C ([2]; dose: 108.0 mg/kg/injection, evaluated on day 33) was 222 % of control. For the same compound, the T/C ([2]; dose: 130.0 mg/kg/injection, evaluated on day 7) was 194 and 201 % of control, the T/C ([2]; dose: 130.0 mg/kg/injection, evaluated on day 32) was 194 and 200 % of control and the T/C ([2]; dose: 180.0 mg/kg/injection, evaluated on day 7) was 215, 221, 226 % of control. For the same compound, the T/C ([2]; dose: 180.0 mg/kg/injection, evaluated on day 30) was 211 and 222 % of control, the T/C ([2]; dose: 180.0 mg/kg/injection, evaluated on day 31) was 222 % of control and the T/C ([2]; dose: 180.0 mg/kg/injection, evaluated on day 33) was 222 % of control. The T/C ([2]; dose: 216.0 mg/kg/injection, evaluated on day 7) was 187 and 221 % of control, the T/C ([2]; dose: 216.0 mg/kg/injection, evaluated on day 32) was 184 and 221 % of control and the T/C ([2]; dose: 300.0 mg/kg/injection, evaluated on day 7) was 218, 242, 244, 245 % of control. The T/C ([2]; dose: 300.0 mg/kg/injection, evaluated on day 30) was 238 and 244 % of control, the T/C ([2]; dose: 300.0 mg/kg/injection, evaluated on day 31) was 238 % of control and the T/C ([2]; dose: 300.0 mg/kg/injection, evaluated on day 33) was 250 % of control. For the same compound, the T/C ([2]; dose: 360.0 mg/kg/injection, evaluated on day 7) was 218 and 232 % of control, the T/C ([2]; dose: 360.0 mg/kg/injection, evaluated on day 32) was 205 and 231 % of control and the T/C ([2]; dose: 500.0 mg/kg/injection, evaluated on day 7) was 155 and 162 % of control. The T/C ([2]; dose: 500.0 mg/kg/injection, evaluated on day 30) was 194 % of control, the T/C ([2]; dose: 500.0 mg/kg/injection, evaluated on day 31) was 155 % of control and the T/C ([2]; dose: 500.0 mg/kg/injection, evaluated on day 33) was 166 % of control. The T/C ([2]; dose: 600.0 mg/kg/injection, evaluated on day 7) was 166 and 250 % of control, the T/C ([2]; dose: 600.0 mg/kg/injection, evaluated on day 29) was 115 % of control and the T/C ([2]; dose: 600.0 mg/kg/injection, evaluated on day 32) was 168 and 242 % of control [7 of 8 alive]. The survivor count ([2]; dose: 800.0 mg/kg/injection, schedule: Q## X009 (sc)) was 7 of 8, the T/C ([2]; dose: 833.0 mg/kg/injection, evaluated on day 7) was 121 % of control and the T/C ([2]; dose: 833.0 mg/kg/injection, evaluated on day 30) was 122 % of control.
